Laboratory results: PMC4613535
Results are given in words; binding and its absence hold for the method and conditions named. Some results given as binding are weak or reduced against the parent protein; the word gives no strength. Each block holds one binder with its values, some of them ahead of it.

How the values were obtained:
[1] = target: T1, IRF3 (interferon-regulatory factor 3) (mouse (endogenous in RAW264.7)), P70671; assay: native gel or EMSA; native PAGE of RAW cell lysates (10 μg of protein), no SDS or reducing agent, 1% sodium deoxycholate in the cathode chamber, immunoblot with an antibody to all forms of IRF3; cells stimulated with poly(I:C) (10 μg/ml) or LPS (100 ng/ml), without or with 1.0 μM BI-2536 or 1.0 μM JQ1; conditions: remark: other sources report otherwise
T1 chain: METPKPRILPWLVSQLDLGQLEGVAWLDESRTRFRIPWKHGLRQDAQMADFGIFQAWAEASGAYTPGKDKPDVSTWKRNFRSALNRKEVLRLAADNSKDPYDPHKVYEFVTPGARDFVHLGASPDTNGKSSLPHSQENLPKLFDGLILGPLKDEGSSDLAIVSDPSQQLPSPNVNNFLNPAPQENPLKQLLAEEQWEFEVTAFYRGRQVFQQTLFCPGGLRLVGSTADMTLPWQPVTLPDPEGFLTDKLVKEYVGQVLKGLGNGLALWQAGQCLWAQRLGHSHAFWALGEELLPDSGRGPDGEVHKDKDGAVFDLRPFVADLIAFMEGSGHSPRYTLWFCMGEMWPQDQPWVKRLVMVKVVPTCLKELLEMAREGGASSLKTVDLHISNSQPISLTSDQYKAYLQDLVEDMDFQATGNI

[2] = target: IRF3 (interferon-regulatory factor 3) (mouse (endogenous in RAW264.7)) (UniProt P70671); assay: condition: only cells incubated with 2.0 μM of the TBK1 inhibitor MRT67307; native gel or EMSA; as a1, but cells incubated for 1 h with 2.0 μM of the TBK1 inhibitor MRT67307 before stimulation with poly(I:C) or LPS

binding [1]: binds
B1: IRF3 (interferon-regulatory factor 3), P70671 1-419 (protein)
chain: T1 chain

binding [2]: no binding
B2: IRF3 (interferon-regulatory factor 3) (protein, UniProt P70671 1-419)
chain: T1 chain
